Experimental data as given in article PMC5333157.
No constants are given. Whether binding was seen depends on the method and setting. For some assays here: In cells and extracts the contact can be indirect. For some assays here: Binding calls can cover weak binding; strength is not graded here.

Protein sequences, listed by entry. Tags and fused reporters are not part of them. Lines headed by an entry give the natural chain unless they say otherwise; changes in a name come on top.
UniProt Q05923: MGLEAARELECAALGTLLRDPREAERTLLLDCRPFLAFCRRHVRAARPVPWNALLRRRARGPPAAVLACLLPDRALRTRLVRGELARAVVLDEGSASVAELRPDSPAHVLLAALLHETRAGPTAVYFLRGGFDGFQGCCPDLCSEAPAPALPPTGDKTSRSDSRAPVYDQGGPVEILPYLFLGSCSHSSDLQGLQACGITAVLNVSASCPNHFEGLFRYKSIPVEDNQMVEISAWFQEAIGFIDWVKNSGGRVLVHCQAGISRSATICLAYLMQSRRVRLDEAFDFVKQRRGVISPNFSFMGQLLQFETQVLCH
UniProt P31152: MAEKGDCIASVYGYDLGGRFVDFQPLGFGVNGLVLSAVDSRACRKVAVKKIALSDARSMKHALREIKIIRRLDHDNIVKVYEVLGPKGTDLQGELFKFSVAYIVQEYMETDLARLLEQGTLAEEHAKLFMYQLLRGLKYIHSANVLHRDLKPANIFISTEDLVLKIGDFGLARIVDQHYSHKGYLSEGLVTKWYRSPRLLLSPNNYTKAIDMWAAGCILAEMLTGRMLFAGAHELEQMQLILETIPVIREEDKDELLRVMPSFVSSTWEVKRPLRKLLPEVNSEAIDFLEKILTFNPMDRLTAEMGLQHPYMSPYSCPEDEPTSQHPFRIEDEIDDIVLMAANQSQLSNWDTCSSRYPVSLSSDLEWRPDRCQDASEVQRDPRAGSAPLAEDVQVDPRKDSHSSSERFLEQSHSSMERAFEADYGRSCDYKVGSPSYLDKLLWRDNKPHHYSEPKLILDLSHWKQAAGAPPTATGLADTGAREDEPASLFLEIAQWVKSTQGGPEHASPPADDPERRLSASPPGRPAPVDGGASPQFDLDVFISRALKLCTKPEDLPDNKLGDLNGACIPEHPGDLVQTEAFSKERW
UniProt Q16659: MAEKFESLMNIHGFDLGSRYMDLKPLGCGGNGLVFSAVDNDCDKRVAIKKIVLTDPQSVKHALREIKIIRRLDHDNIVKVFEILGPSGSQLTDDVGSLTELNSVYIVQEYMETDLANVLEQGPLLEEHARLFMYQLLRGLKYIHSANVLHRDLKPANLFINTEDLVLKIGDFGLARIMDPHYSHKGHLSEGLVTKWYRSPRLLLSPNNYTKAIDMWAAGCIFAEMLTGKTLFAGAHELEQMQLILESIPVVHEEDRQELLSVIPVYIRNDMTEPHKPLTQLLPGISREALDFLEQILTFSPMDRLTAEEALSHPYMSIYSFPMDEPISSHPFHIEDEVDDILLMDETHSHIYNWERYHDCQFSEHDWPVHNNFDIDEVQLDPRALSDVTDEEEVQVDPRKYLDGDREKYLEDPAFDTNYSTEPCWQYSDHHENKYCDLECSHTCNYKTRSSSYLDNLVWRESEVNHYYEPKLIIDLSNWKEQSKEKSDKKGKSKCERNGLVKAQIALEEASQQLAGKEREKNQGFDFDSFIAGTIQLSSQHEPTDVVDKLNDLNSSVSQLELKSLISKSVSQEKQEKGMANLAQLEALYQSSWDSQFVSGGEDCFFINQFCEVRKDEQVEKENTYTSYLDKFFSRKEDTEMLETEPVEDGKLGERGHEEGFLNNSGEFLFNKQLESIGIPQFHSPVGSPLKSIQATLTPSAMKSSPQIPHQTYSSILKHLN

Legend:
[1] = target: DUSP2 mutant lacking a functional KIM (DUSP2KIM), GAL4 DNA-binding domain fusion (human) (UniProt Q05923); test: two-hybrid; GAL4 activation domain fusions of ERK3, ERK4 or ERK2 (pGADT7, Y187) mated with GAL4 DNA-binding domain fusions of MKPs (pGBKT7, PJ69-2A); growth on SD medium lacking leucine, tryptophan, alanine and histidine
[2] = target: myc-tagged common-docking site ERK4 mutant (ERK4D320N) (UniProt P31152); test: co-IP; NCI-H1299 cells co-transfected with FLAG-tagged ERK3 or myc-tagged ERK4 and tagged DUSP2CS; anti-FLAG or anti-myc immunoprecipitation; DUSP2 detected with a DUSP2 specific antibody
[3] = target: myc-tagged ERK4 mutant in which the FRIEDE motif was rendered non-functional (ERK4I330K) (UniProt P31152); test: as above
[4] = target: myc-tagged wild-type ERK4 (ERK4wt) (UniProt P31152); test: as above
[5] = target: myc-tagged wild-type ERK4 (ERK4wt) (UniProt P31152); test: co-IP; HeLa cells co-transfected with myc-tagged ERK4 and HA-tagged DUSP2; anti-myc immunoprecipitation; DUSP2 visualized with anti-HA
[6] = target: myc-tagged catalytically inactive mutant of DUSP2 (DUSP2CS-Myc) (human) (UniProt Q05923); test: co-IP; NCI-H1299 cells transfected with myc-tagged DUSP2; anti-Myc immunoprecipitation; endogenous ERK3 detected by Western blot (clone 4C11)
[7] = target: myc-tagged wild-type DUSP2 (human) (UniProt Q05923); test: as above
[8] = target: HA-tagged wild-type DUSP2 (DUSP2-HA) (human) (UniProt Q05923); test: co-IP; HEK-293 cells transfected with HA-tagged DUSP2; anti-HA immunoprecipitation; endogenous ERK4 and ERK2 detected by Western blot
[9] = target: HA-tagged catalytically inactive DUSP2 (DUSP2CS-HA) (human) (UniProt Q05923); test: as above
[10] = target: HA-tagged catalytically inactive DUSP2 with mutated KIM (DUSP2CSKIM-HA) (human) (UniProt Q05923); test: as above
[11] = target: FLAG-tagged wild-type ERK3 (ERK3wt) (UniProt Q16659); test: co-IP; NCI-H1299 cells co-transfected with FLAG-tagged ERK3 or myc-tagged ERK4 and tagged DUSP2CS; anti-FLAG or anti-myc immunoprecipitation; DUSP2 detected with a DUSP2 specific antibody
[12] = target: FLAG-tagged FRIEDE ERK3 mutant (ERK3I334K) (UniProt Q16659); test: as above
[13] = target: FLAG-tagged common-docking site ERK3 mutant (ERK3D324N) (UniProt Q16659); test: as above

ERK3 (wild-type), GAL4 activation domain fusion (from UniProt Q16659 1-721) (enzyme)
binding [1]: no binding

ERK4 (wild-type), GAL4 activation domain fusion (from UniProt P31152 1-587) (enzyme)
binding [1]: no binding

HA-tagged catalytically inactive DUSP2 (DUSP2CS-HA) (from UniProt Q05923) (enzyme)
binding [2]: no binding | binding [3]: binds | binding [4]: binds | binding [5]: binds

endogenous ERK3 (from UniProt Q16659 1-721) (enzyme)
binding [6]: binds | binding [7]: binds

endogenous ERK4 (from UniProt P31152 1-587) (enzyme)
binding [8]: binds | binding [9]: binds | binding [10]: no binding

myc-tagged catalytically inactive mutant of DUSP2 (DUSP2CS-Myc) (from UniProt Q05923) (enzyme)
binding [11]: binds | binding [12]: binds | binding [13]: no binding
